Some of these results come from one statement about several compounds together.
The compounds below were run on bronchospasm against acetylcholine (assay: Broncholytic effect at the narcotized guinea-pig, bronchospasm by acetylcholine). Settings: in vivo.
Experimental: 2. Broncholytic effect at the narcotized guinea-pig
This test was performed according to H. Konsett and R. Rossler ("Archiv exp. Path. Pharmak." vol. 195 (1940), page 71).

Row | SMILES | Broncholytic effect against acetylcholine compared with sample 8
1 | CCCCCCn1c(=O)c2c(ncn2CCCCC(C)=O)n(C)c1=O [Sample 3, I-(n-hexyl)-3-methyl-7-(5-oxohexyl)-xanthine] | better than the corresponding effect of sample 8
2 | CCCn1cnc2c1c(=O)n(CCCCC(C)=O)c(=O)n2C [Sample 4, 1-(5-Oxohexyl)-3-methyl-7-propyl-xanthine] | better than the corresponding effect of sample 8
3 | CCCCn1cnc2c1c(=O)n(CCCCC(C)=O)c(=O)n2C [Sample 5, 1-(5-Oxohexyl)-3-methyl-7-(n-butyl)-xanthine] | better than the corresponding effect of sample 8
4 | CCn1cnc2c1c(=O)n(CCCCC(C)=O)c(=O)n2C [Sample 7, 1-(5-oxohexyl)-3-methyl-7-ethyl-xanthine] | better than the corresponding effect of sample 8

Source: patent publication US4289776A, “Xanthine derivatives” (Hoechst Aktiengesellschaft, priority 1973, dated 1981)
